Measured values published in PubChem BioAssay AID1671190 (National Center for Advancing Translational Sciences (NCATS), 2021).
Screen size: about 580,000 compounds; about 6,100 (1.1%) were called active. This list was built around the results that the source calls inconclusive (neither active nor inactive); the mix of calls is not that of the screen. The call rests on the fitted dose curve; in most records, active means well fitted inhibition curve with a large enough effect; inconclusive means small, poorly fitted or top-dose-only effect, or another doubt; inactive means no such curve, though single readings can be large or run the other way. Potencies of inconclusive entries are doubtful fits and often do not repeat.
On the % scale 0 is the no-effect control and ±100 the full control effect; potency means the concentration at half of the fitted maximal effect.

Sequences of proteins named here, by UniProt entry; tags and fusion partners are left off. A change or cut given only in a name is not applied to a line headed by its entry.
UniProt P18054: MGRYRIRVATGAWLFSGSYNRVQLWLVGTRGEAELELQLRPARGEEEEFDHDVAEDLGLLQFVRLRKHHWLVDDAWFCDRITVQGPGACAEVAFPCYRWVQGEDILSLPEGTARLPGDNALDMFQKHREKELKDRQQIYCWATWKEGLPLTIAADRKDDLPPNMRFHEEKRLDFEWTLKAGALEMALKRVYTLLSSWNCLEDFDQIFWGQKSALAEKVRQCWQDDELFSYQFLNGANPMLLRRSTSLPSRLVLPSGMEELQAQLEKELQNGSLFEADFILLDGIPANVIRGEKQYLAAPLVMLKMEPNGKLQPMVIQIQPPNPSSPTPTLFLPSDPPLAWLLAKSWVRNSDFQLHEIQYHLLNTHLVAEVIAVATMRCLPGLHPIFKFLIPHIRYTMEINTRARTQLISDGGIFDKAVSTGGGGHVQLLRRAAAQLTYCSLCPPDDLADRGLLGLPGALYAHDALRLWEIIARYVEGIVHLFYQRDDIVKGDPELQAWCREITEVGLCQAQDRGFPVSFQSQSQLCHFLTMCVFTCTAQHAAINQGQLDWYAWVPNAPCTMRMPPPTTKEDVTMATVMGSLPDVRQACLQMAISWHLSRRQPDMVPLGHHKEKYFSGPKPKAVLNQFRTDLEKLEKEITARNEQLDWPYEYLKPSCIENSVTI

Each molecule was assayed against Polyunsaturated fatty acid lipoxygenase ALOX12 (Homo sapiens) (UniProt P18054) (assay: Primary qHTS assay for inhibitors of human arachidonate 12S-lipoxygenase (ALOX12): Round 2). Conditions: purified 12hLO, xylenol orange hydroperoxide absorbance; activity change, negative = inhibition: at 108 µM (top of the series) unless noted.
How it was run: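 Hydroperoxide product was detected by ferrous iron/xylenol orange as the 573 to 405 nm absorbance ratio. Arachidonic acid at 40 uM (final) was turned over for 30 min at room temperature by 150 nM human 12hLO, pH 7.0 Hepes buffer, after 15 min compound preincubation.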
Cn1ccnc1CN1CCOC[C@H]1c1ncc(-c2cccc(Cl)c2)[nH]1 was tested, and the “activity change, negative = inhibition” value was inactive: 62.4% [at 176 µM].
Cc1nccn1CCCNC(=O)CC1C(=O)NCCN1Cc1ccccc1C(F)(F)F (configuration not stated) was tested, and the “activity change, negative = inhibition” value was inactive: -5.12%.
With COc1ccc(CN(C(=O)CSc2nc3ccc(OC)cc3[nH]2)C2CC2)cc1 the “activity change, negative = inhibition” value was inactive: 11.2%.
In the case of COc1ccccc1CNS(=O)(=O)c1cc2c3c(c1)CCN3C(=O)CC2, the Potency is reported as inconclusive: 100 µM [inhibitor, single point].
For COc1ccc(-c2nc(-c3ccccc3)c(-c3ccc(O)cc3)[nH]2)cc1, the Potency was inconclusive: 50.1 µM [inhibitor, partial curve, poor fit].
In the case of CCCN(C(=O)c1cccc(-n2cccc2)c1)c1c(N)n(Cc2ccccc2)c(=O)[nH]c1=O, the Potency is reported as inconclusive: 89.1 µM [inhibitor, single point].
CC(=C1SC(=S)NC1=O)c1ccccc1 was tested, and the Potency was inconclusive: 44.7 µM [inhibitor, partial curve, poor fit].
For CC(C)CC(=O)N1CCN(c2ccc([N+](=O)[O-])c(NCc3ccccc3)c2)CC1, the Potency was inconclusive: 31.6 µM [inhibitor, partial curve, poor fit].
With CCCCN1C(=O)C(CC(=O)NCCN2CCOCC2)CC(C(=O)N(CC)CC)=C1C (configuration not stated) the “activity change, negative = inhibition” value was inactive: 0.246%.
C=CCn1c2ccccc2c(=O)c2cc(C#Cc3cc(OC)cc(OC)c3)ccc21 was tested, and the Potency was inconclusive: 28.2 µM [inhibitor, partial curve, poor fit].
Cc1cc(C)c(S(=O)(=O)/N=C2/C=C(Sc3ncn[nH]3)C(=O)c3ccccc32)cc1C was tested, and the Potency was inconclusive: 3.16 µM [inhibitor, full curve, poor fit].
In the case of CC1=CC(C)(C)Nc2ccc(OC(=O)c3ccco3)cc21, the Potency is reported as inconclusive: 63.1 µM [inhibitor, partial curve, poor fit].
For CCOC(=O)c1sc(C)nc1C1CCN(C(=O)OCC)CC1, the “activity change, negative = inhibition” value was inactive: -7.22%.
With CCC(C)C(NC(N)=O)C(=O)Nc1ccc(C)c(Cl)c1 (configuration not stated) the Potency was inconclusive: 50.1 µM [inhibitor, single point].
CCOC(=O)CCNCc1ccccc1 was tested, and the Potency was inconclusive: 50.1 µM [inhibitor, partial curve, poor fit].
COc1cccc(C(=O)Nc2ccc(NC(C)=O)cn2)c1 was tested, and the “activity change, negative = inhibition” value was inactive: 38.1%.
With COc1ccc(C(=O)OC2CCCCC2=O)cc1OC (configuration not stated) the “activity change, negative = inhibition” value was inactive: -29%.
Cc1ccc2[nH]c(=O)c3cc(C(=O)NCc4ccc(F)cc4Cl)sc3c2c1 was tested, and the activity change, negative = inhibition was inconclusive: -31.7% [inhibitor].
OCCNc1ncnc2ccc(-c3cccc(O)c3)cc12 was tested, and the Potency was inconclusive: 3.16 µM [inhibitor, full curve, poor fit].
In the case of COc1ccccc1C(=O)NCCC(=O)Nc1ccc(OC(F)(F)F)cc1, the Potency is reported as inconclusive: 126 µM [inhibitor, partial curve, poor fit].
With Oc1ccc(Br)cc1-c1n[nH]c(=S)n1Cc1ccccc1 the “activity change, negative = inhibition” value was inactive: -26.8%.
Cc1ccccc1OCCOC(=O)CCC(=O)c1ccc(F)cc1 was tested, and the “activity change, negative = inhibition” value was inactive: -4.56%.
In the case of CCOc1cc(/C=N/NC(=O)c2ccc(O)cc2)ccc1Oc1nc(Cl)ncc1F, the Potency is reported as inconclusive: 0.501 µM [inhibitor, full curve, poor fit].
CC(=O)Nc1ccc(S(=O)(=O)N2CC3(C)CC2CC(C)(C)C3)cc1 (configuration not stated) was tested, and the “activity change, negative = inhibition” value was inactive: -2.43%.
With CC(=O)N1Cc2ccccc2CC2(CCN(CC3CCCCC3)CC2)C1 the activity change, negative = inhibition was inconclusive: -30.8% [inhibitor].
For COCCOCc1nc(C2CCN(C(=O)NCCc3ccccc3)CC2)no1, the “activity change, negative = inhibition” value was inactive: 35.6%.
Cc1noc(C)c1COc1ccc(CC(=O)Nc2ncccc2O)cc1 was tested, and the Potency was inconclusive: 0.398 µM [inhibitor, full curve, poor fit].
With Cc1ccc(CN2CCNC(=O)C2CC(=O)N(C)C2CCCCC2)cc1 (configuration not stated) the Potency was inconclusive: 39.8 µM [inhibitor, partial curve, poor fit].
In the case of O=[N+]([O-])c1cc(CN2CCCC2)ccc1Sc1ccc(Cl)cc1, the Potency is reported as inconclusive: 50.1 µM [inhibitor, partial curve, poor fit].
With Cc1ccc2sc(N3CCN(C(=O)CCS(=O)(=O)c4ccc(F)cc4)CC3)nc2c1C the Potency was inconclusive: 56.2 µM [inhibitor, partial curve, poor fit].
For COc1ccc(CCNC(=S)Nc2ccc(C)cc2C)cc1, the Potency was inconclusive: 44.7 µM [inhibitor, partial curve, poor fit].
Cc1ccc(NC(=O)CN(C)C(=O)COc2ccccc2-c2ccccc2)cc1 was tested, and the “activity change, negative = inhibition” value was inactive: -18.7%.
For C[C@H](CO)N1C[C@H](C)[C@@H](CN(C)S(=O)(=O)c2cccs2)Oc2c(NS(=O)(=O)c3ccccc3)cccc2C1=O, the Potency was inconclusive: 112 µM [inhibitor, single point].
For Cc1[nH]nc2c1C(c1ccccc1C(F)(F)F)C(C#N)=C(N)O2 (configuration not stated), the Potency was inconclusive: 50.1 µM [inhibitor, partial curve, poor fit].
With CC(C)(C)c1csc(NC(=O)C2COc3ccccc3O2)n1 (configuration not stated) the Potency was inconclusive: 50.1 µM [inhibitor, partial curve, poor fit].
In the case of COc1ccc(-c2nc3cc(C)c(Br)c(C)n3c2CC2CCCCC2)cc1OC, the Potency is reported as inconclusive: 89.1 µM [inhibitor, single point].
COc1ncccc1CNC[C@H]1O[C@@H]2C[C@@H](CC(=O)NCc3nccn3C)O[C@@H]2[C@@H]1O was tested, and the Potency was inconclusive: 10 µM [inhibitor, full curve].
With CNC(=O)c1cnn2cc(C)ccc12 the “activity change, negative = inhibition” value was inactive: 6.51% [at 176 µM].
With CCOC(=O)C1(Cc2ccccc2)CCN(Cc2ccc3cc(NC(C)=O)ccc3n2)CC1 the Potency was inconclusive: 89.1 µM [inhibitor, single point].
CCOC(=O)C1(Cc2cccc(OC)c2)CCN(Cc2ccccc2OC)CC1 was tested, and the “activity change, negative = inhibition” value was inactive: 1.98%.
CCc1ccc(CNC(=O)[C@@]23CCCC[C@H]2N(C)C(=O)CC3)cc1 was tested, and the Potency was inconclusive: 12.6 µM [inhibitor, partial curve].
CN(C(=O)C1CCN(S(=O)(=O)c2ccccc2)CC1)c1c(N)n(Cc2ccccc2)c(=O)[nH]c1=O was tested, and the Potency was inconclusive: 3.98 µM [inhibitor, full curve].
Fc1ccc(CNC(=S)NC2CCCCCC2)cc1 was tested, and the Potency was inconclusive: 44.7 µM [inhibitor, partial curve, poor fit].
In the case of CC(NS(=O)(=O)c1ccc(Br)cc1)C(=O)Nc1nc2ccccc2[nH]1 (configuration not stated), the Potency is reported as inconclusive: 100 µM [inhibitor, single point].
In the case of O=C(c1ccco1)N1CCC(C(=O)N2CCCC2)CC1, the Potency is reported as inconclusive: 89.1 µM [inhibitor, partial curve, poor fit].
In the case of CCCOc1ccc2ccccc2c1/C=C(/C#N)c1nc2ccccc2[nH]1, the Potency is reported as inconclusive: 35.5 µM [inhibitor, single point].
With COc1ccc(-c2nc3ccc(Br)cn3c2Cc2cccc(Cl)c2)cc1OC the Potency was inconclusive: 89.1 µM [inhibitor, single point].
O=C(C1COc2cc(S(=O)(=O)Nc3ccc(F)cc3)ccc2O1)N1CCCCC1 (configuration not stated) was tested, and the “activity change, negative = inhibition” value was inactive: -1.6%.
With Cc1ncc(CN2CCN(Cc3ccccc3)C(CCO)C2)s1 (configuration not stated) the “activity change, negative = inhibition” value was inactive: 0.249%.
With C=CC[N+](C)(C)CC(=O)OC1CC2CCC1(C)C2(C)C (configuration not stated) the Potency was inconclusive: 31.6 µM [inhibitor, full curve, poor fit].
With O=C(Nc1cc(N2CCOCC2)ncn1)c1ccc(F)cc1 the “activity change, negative = inhibition” value was inactive: -5.95%.
COc1ccc(CCNC(=O)c2cc3c(=O)n4ccccc4nc3n(C3CCCCC3)c2=N)cc1 was tested, and the Potency was inconclusive: 79.4 µM [inhibitor, single point].
S=C(NC1CCCCC1)N1CCn2cccc2C1c1cccnc1 (configuration not stated) was tested, and the “activity change, negative = inhibition” value was inactive: 7.91%.
For Cc1ccoc1C(=O)Nc1ccc(-c2ccccc2)cc1, the Potency was inconclusive: 141 µM [inhibitor, single point].
For CCCCCCc1cc2cc(S(=O)(=O)c3ccc(Cl)cc3)c(=O)oc2cc1O, the Potency was inconclusive: 79.4 µM [inhibitor, partial curve, poor fit].
With COc1ccc(/C=C/C(=O)NC(C)CCc2ccccc2)cc1 (configuration not stated) the Potency was inconclusive: 141 µM [inhibitor, partial curve, poor fit].
COc1ccc(-c2sc3cc(OC)ccc3c2-c2ccc(OCCN3CCCCC3)cc2)cc1 was tested, and the Potency was inconclusive: 50.1 µM [inhibitor, partial curve, poor fit].
With Cc1ccc(CNC(=O)c2ccc(-n3cnc4cccnc43)cc2)cc1 the “activity change, negative = inhibition” value was inactive: -8.35%.
With CCCCC(=O)NC(c1ccc(Cl)cc1)c1ccc2cccnc2c1O (configuration not stated) the Potency was inconclusive: 12.6 µM [inhibitor, full curve, poor fit].
CN(C)c1ccnc2sc(C(=O)c3ccccc3)c(N)c12 was tested, and the Potency was inconclusive: 44.7 µM [inhibitor, partial curve, poor fit].
For COc1ccc(NC(=S)Nc2ccc3snnc3c2)cc1, the “activity change, negative = inhibition” value was inactive: -24.9%.
In the case of Cc1cc(O)c(CN(C)C)c2c1C(=O)/C(=C/c1ccco1)O2, the Potency is reported as inconclusive: 44.7 µM [inhibitor, partial curve, poor fit].
For O=C(O)/C=C/c1cc(Cl)ccc1OCc1ccccc1Br, the Potency was inconclusive: 31.6 µM [inhibitor, partial curve, poor fit].
With CCCCCCCCN1C(=O)[C@H](CC(=O)NCc2ccc(C)o2)C[C@@]2(C(=O)OC)CC(C)(C)CC=C12 the Potency was active: 39.8 µM.
For NC(=O)c1ccc(SCC(=O)OCC(=O)NC2CCCCCCC2)c([N+](=O)[O-])c1, the Potency was inconclusive: 31.6 µM [inhibitor, partial curve, poor fit].
CCCCN1CCCc2cc(CN(CCCN3CCOCC3)C(=O)Nc3ccc(OCC)cc3)ccc21 was tested, and the Potency was inconclusive: 50.1 µM [inhibitor, partial curve, poor fit].
For O=C(NCc1cccc(Cl)c1)C(=O)Nc1ccc2nc3n(c(=O)c2c1)CCCCC3, the Potency was inconclusive: 126 µM [inhibitor, partial curve, poor fit].
